Source: PubChem BioAssay AID2517 (National Center for Advancing Translational Sciences (NCATS), 2010)
The campaign covered roughly 350,000 compounds. About 1,200 (0.34%) were called active. This list was built around the results that the source calls inconclusive (neither active nor inactive); the mix of calls is not that of the screen. Calls come from the whole dose curve; as a rule, active = well fitted inhibition curve with a large enough effect; inconclusive = small, poorly fitted or top-dose-only effect; inactive = no such curve, though single readings can be large or run the other way. A potency beside an inconclusive call is a rough fit, not a confirmed value.

Sequences of proteins named here, by UniProt entry; tags and fusion partners are left off.
UniProt P27695, whole entry, looked up: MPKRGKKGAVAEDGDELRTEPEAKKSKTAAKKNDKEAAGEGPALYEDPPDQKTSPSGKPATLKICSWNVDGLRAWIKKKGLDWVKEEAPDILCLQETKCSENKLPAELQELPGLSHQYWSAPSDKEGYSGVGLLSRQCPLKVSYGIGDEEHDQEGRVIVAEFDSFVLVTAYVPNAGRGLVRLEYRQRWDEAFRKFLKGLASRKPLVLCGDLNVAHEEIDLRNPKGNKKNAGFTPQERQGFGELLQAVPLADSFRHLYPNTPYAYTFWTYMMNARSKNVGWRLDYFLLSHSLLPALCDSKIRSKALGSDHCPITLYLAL

target: DNA repair nuclease/redox regulator APEX1 (Homo sapiens) (UniProt P27695); test: qHTS Assay for Inhibitors of the Human Apurinic/apyrimidinic Endonuclease 1 (APE1); details: recombinant APE1, TAMRA/BHQ-2 abasic DNA cleavage fluorescence; activity change, negative = inhibition: at 65.8 µM (top of the series); note: nearly all actives have a fitted effect of over 55% in size;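 for activity change, negative = inhibition: plate controls were vehicle for no effect and reference inhibitor for full effect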
Text: The apurinic/apyrimidinic endonuclease APE1 is the primary mammalian enzyme responsible for the removal of abasic (or AP) sites in DNA and functions centrally in the base excision DNA repair (BER) pathway. […] Thus, targeting APE1 could improve the efficacy of current treatment paradigms by promoting selective sensitization or protection of diseased and normal cells, respectively.
Inhibition of APE1 activity was screened by utilizing double-stranded short substrate containing tetrahydrofuran (THF) abasic site labeled with rhodamine-type fluorophore (TAMRA) at the 5'-end and with non-fluorescent Black Hole Quencher-2 (BHQ-2) at the opposing 3'-end. An increase in the fluorescence intensity due to incision of the abasic site by APE1 was used to measure the enzyme activity.
NIH Chemical Genomics Center [NCGC]
NIH Molecular Libraries Probe Centers Network [MLPCN]
Assay Provider: David M. Wilson, III, National Institute on Aging, NIH
Three uL of enzyme solution (0.75 nM APE1 final concentration) was dispensed to 1536-well Greiner black solid bottom plates. […] The plates were incubated for 15 min at room temperature, and then 1 uL of substrate solution (50 nM final concentration of TAMRA/BHQ-2) was added to start the reaction. The plates were immediately transferred into ViewLux High-throughput CCD imager (Perkin-Elmer) in order to measure the reaction progress in kinetic mode (three reads every 60 seconds) using 525 nm excitation and 598 nm emission fluorescence protocol. The fluorescence intensity difference between the third and the first time points was used to compute reaction progress. Results were normalized to buffer only columns and NSC13755 positive controls and negative control DMSO treated wells.
Potency is the fitted concentration of half-maximal effect.

SMILES | Potency | activity change, negative = inhibition
CC(C)Cn1nc(NC(=O)c2cccs2)c2cc3ccccc3nc21 | inconclusive: 3.16 µM [inhibitor, full curve, poor fit] | –
CCOc1ccc(CCNC(=O)c2cc3c(C)nccc3[nH]c2=O)cc1OCC | inconclusive: 15.8 µM [inhibitor, partial curve] | –
CN1C(=O)C2(c3ccccc31)C1CCCC=C1C(C#N)=C(N)C2(C#N)C#N (stereo not drawn) | inconclusive: 7.08 µM [inhibitor, partial curve] | –
CSc1nc(C)cc(OCCO)n1 | inconclusive: 3.55 µM [inhibitor, single point] | –
Cc1ccc(C[C@H](C(=O)O)N2C(=O)c3ccc(C(=O)O)cc3C2=O)c(C)c1 | inconclusive: 35.5 µM [inhibitor, single point] | –
COc1ccc(CC(=O)c2ccc(O)cc2O)cc1 | inconclusive: 12.6 µM [inhibitor, partial curve] | –
O=C(/C=C/NNC(=O)c1ccccc1)c1ccc(Br)cc1 | inconclusive: 28.2 µM [inhibitor, partial curve] | –
COc1ccc2cc(C(=O)Nc3ccc(S(N)(=O)=O)cc3)sc(=O)c2c1OC | inconclusive: 31.6 µM [inhibitor, single point] | –
O=C(O/N=C(\c1ccccc1)c1ccncc1)c1ccccc1Cl | inconclusive: 28.2 µM [inhibitor, partial curve] | –
Cc1ccc(CSc2nccc(-c3c(C)nc4ccccn34)n2)cc1 | inconclusive: 28.2 µM [inhibitor, single point] | –
O=C(/C=C/c1ccco1)NCCCN1CCN(CCCNC(=O)/C=C/c2ccco2)CC1 | inconclusive: 3.98 µM [inhibitor, single point] | –
C=C1CCC2C(C)(CO)C(O)CCC2(C)C1C/C=C1\C(=O)OCC1O (stereo not drawn) | – | inactive: 0.795%
Cc1ccc(/C=C2\SC(=S)N(/N=C/c3cc([N+](=O)[O-])ccc3O)C2=O)o1 | inconclusive: 22.4 µM [inhibitor, single point] | –
CCOC(=O)CNC(=S)N(CCCN1CCCC1)Cc1cccs1 | inconclusive: 0.199 µM [inhibitor, full curve, poor fit] | –
C=CCn1c(COc2ccccc2)nnc1SCC(=O)N/N=C/c1cc(Cl)ccc1O | – | inactive: 0.189%
COc1ccc(-c2cc3nc4ccccc4n3c(N)c2C#N)cc1 | – | inactive: -4.13%
O=S(=O)(Cc1ccccc1)N1CCCC(c2nc(-c3ccc(F)cc3)no2)C1 (stereo not drawn) | inconclusive: 17.8 µM [inhibitor, single point] | –
N#C/C(=C(\O)C(F)(F)F)c1nnc2n1CCCCC2 | inconclusive: 39.8 µM [inhibitor, partial curve, poor fit] | –
Cc1ccc(-c2cc(C(=O)N/N=C/c3c[nH]c4ccccc34)[nH]n2)cc1 | inconclusive: 25.1 µM [inhibitor, partial curve, poor fit] | –
O=C(O)c1ccc(N2C(=O)/C(=C/c3ccc(-c4ccc([N+](=O)[O-])cc4)o3)C=C2c2ccccc2)cc1 | inconclusive: 28.2 µM [inhibitor, single point] | –
Nn1cc(Br)c(=O)[nH]c1=O | inconclusive: 25.1 µM [inhibitor, single point] | –

Some of the entries so far, as comma-separated lines.
SMILES,Potency,"activity change, negative = inhibition"
CCOc1ccc(CCNC(=O)c2cc3c(C)nccc3[nH]c2=O)cc1OCC,"inconclusive: 15.8 µM [inhibitor, partial curve]",–
CN1C(=O)C2(c3ccccc31)C1CCCC=C1C(C#N)=C(N)C2(C#N)C#N (stereo not drawn),"inconclusive: 7.08 µM [inhibitor, partial curve]",–
CSc1nc(C)cc(OCCO)n1,"inconclusive: 3.55 µM [inhibitor, single point]",–
Cc1ccc(C[C@H](C(=O)O)N2C(=O)c3ccc(C(=O)O)cc3C2=O)c(C)c1,"inconclusive: 35.5 µM [inhibitor, single point]",–

(next part)

SMILES | Potency | activity change, negative = inhibition
O=C(O)CSc1c2c(nc3cc(C(=O)Nc4ccc(F)c(Cl)c4)ccc13)CCCC2 | – | inactive: -44.7%
Cc1ncc([N+](=O)[O-])n1CCOC(=O)c1cc(Cl)cc(Cl)c1N | inconclusive: 39.8 µM [inhibitor, single point] | –
CCC/C=C(\CCC)C(NC(=O)Cc1ccccc1)c1ccc(C(=O)OC)cc1 (stereo not drawn) | inconclusive: 6.31 µM [inhibitor, partial curve] | –
COc1ccc(C(=O)NCC(=O)OCC(=O)Nc2cccc(S(=O)(=O)N3CCCC3)c2)cc1 | inconclusive: 0.355 µM [inhibitor, full curve, poor fit] | –
[N-]=[N+]=Nc1ccc(C(=O)CSC[C@H](NC(=O)CC[C@H](N)C(=O)O)C(=O)NCC(=O)O)cc1 | inconclusive: 28.2 µM [inhibitor, partial curve] | –
O=C(NCc1ccco1)c1c2c(nc3ccccc13)CCC2 | inconclusive: 39.8 µM [inhibitor, single point] | –
Cc1c(Cl)cccc1-n1c(SCC(=O)NCc2cccs2)nnc1-c1ccncc1 | inconclusive: 4.47 µM [inhibitor, partial curve, poor fit] | –
CN(C)Cc1ccccc1-c1cc(NC2CC2)ncn1 | – | inactive: -0.792%
Cn1ncc([N+](=O)[O-])c1C(=O)Nc1nc2ccccc2n1CCN1CCCCC1 | inconclusive: 8.91 µM [inhibitor, partial curve] | –
Cc1[nH]nc(NCCO)c1[N+](=O)[O-] | inconclusive: 44.7 µM [inhibitor, single point] | –
O=c1c2[nH]c3ccc(F)cc3c2ncn1CCCN1CCOCC1 | inconclusive: 39.8 µM [inhibitor, single point] | –
O=C(NC(Cc1ccccc1)C(=O)O)c1ccc(S(=O)(=O)N2CCCC2)cc1 (stereo not drawn) | – | inactive: -4.93%
COc1ccc2nc(N3CCCC3)c(C#N)cc2c1 | – | inactive: -3.34%
O=C(NNC(=O)C1CCC(C(=O)NNC(=O)c2cccs2)CC1)c1cccs1 (stereo not drawn) | inconclusive: 10 µM [inhibitor, partial curve, poor fit] | –
COc1cc(N(C)C)cc(CN(C)CCc2ccc([N+](=O)[O-])cc2)c1O | active: 3.16 µM | –
Clc1cccc(Cl)c1CNc1ccc(N2CCCC2)cc1 | inconclusive: 1410 µM [inhibitor, partial curve, poor fit] | –
COc1ccc(S(=O)(=O)N2CCN(C(=O)c3c(-c4ccccc4)noc3C)CC2)cc1 | inconclusive: 44.7 µM [inhibitor, single point] | –
O=C(O)CCN1C(=O)C2C3c4ccccc4C(c4ccccc43)C2C1=O (stereo not drawn) | inconclusive: 0.1 µM [inhibitor, full curve, poor fit] | –
O=C(O)c1cc(S(=O)(=O)Nc2ccc3oc(=O)sc3c2)ccc1O | inconclusive: 28.2 µM [inhibitor, single point] | –
O=C(CNS(=O)(=O)c1ccccc1)Nc1cccc([N+](=O)[O-])c1 | inconclusive: 31.6 µM [inhibitor, single point] | –
COc1ccc(CN(C)C2CCCCC2)cc1 | inconclusive: 4.47 µM [inhibitor, partial curve] | –

SMILES | Potency | activity change, negative = inhibition
C=CC[n+]1c(-c2ccc(Cl)cc2Cl)csc1Nc1c(C)n(C)n(-c2ccccc2)c1=O | inconclusive: 1 µM [inhibitor, full curve, poor fit] | –
Cc1cc(C)c2nc(-c3ccccn3)cc(C(=O)NCc3ccco3)c2c1 | inconclusive: 10 µM [inhibitor, partial curve] | –
COc1cccc2c(C)c(C(=O)O)[nH]c12 | inconclusive: 22.4 µM [inhibitor, partial curve, poor fit] | –
O=C(Cc1ccc2c(c1)OCCO2)c1c(O)cc(O)cc1O | – | inactive: -6.28%
CCCCc1cc2c(cn1)=C(OC(=O)c1ccco1)C(C)(OC(=O)CC)C(=O)C=2 (stereo not drawn) | – | inactive: -5.85% [at 12.4 µM]
Cc1ccc(OCc2nc(C#N)c(NCc3ccc4c(c3)OCO4)o2)cc1 | inconclusive: 22.4 µM [inhibitor, single point] | –
COc1cccc(CN(CC2CCCO2)S(=O)(=O)c2ccc(S(=O)(=O)NCC3CCCO3)cc2)c1OC (stereo not drawn) | inconclusive: 3.98 µM [inhibitor, full curve, poor fit] | –
COCCN(CCOC)C(=O)c1cc2sc3ccccc3c2s1 | inconclusive: 11.2 µM [inhibitor, partial curve, poor fit] | –
CC(=O)OC[C@@H]1O[C@H](C/C=N\O[C@@H](C)CN2CCCCc3nc(C)c(C)cc32)C=C[C@@H]1OC(C)=O | inconclusive: 3.16 µM [inhibitor, single point] | –
CCC(C(=O)NCc1ccccc1OC)c1ccccc1 (stereo not drawn) | inconclusive: 44.7 µM [inhibitor, single point] | –
CCn1c(SCC(=O)Nc2ccc(NC(=O)c3ccco3)c(OC)c2)nc2ccccc2c1=O | inconclusive: 0.199 µM [inhibitor, full curve, poor fit] | –
O=C1/C(=C/c2ccc(Cl)cc2)SC(=S)N1CCC(=O)N1CCCCC1CCO (stereo not drawn) | – | inactive: -7.17%
CN(c1ccccc1)c1ccc(/C=C(\CCC(=O)O)c2nc3ccccc3s2)cc1[N+](=O)[O-] | inconclusive: 35.5 µM [inhibitor, partial curve] | –
Cc1ccc(N(CC(=O)Nc2cccc(C)c2)S(=O)(=O)c2cccc3nonc23)cc1 | inconclusive: 31.6 µM [inhibitor, single point] | –
Cn1cccc1C(=O)NC(=O)COC(=O)CCNS(=O)(=O)c1ccc(Cl)cc1 | inconclusive: 10.6 µM [inhibitor, single point] | –
CCN(CC(=O)NCc1ccc(F)cc1)c1ccc(S(C)(=O)=O)cc1[N+](=O)[O-] | inconclusive: 12.6 µM [inhibitor, partial curve] | –
O=C1CCc2c(ccc3ccccc23)O1 | inactive | –
O=C(c1ccc(O)cc1)c1ccc(C(=O)O)c(C(=O)O)c1 | inconclusive: 44.7 µM [inhibitor, single point] | –
O=c1cc[nH]c2cc(Cl)ccc12 | inconclusive: 3.16 µM [inhibitor, single point] | –
O=C(c1ccc(SCc2cccc(Br)c2)c([N+](=O)[O-])c1)N1CCN(c2ccccn2)CC1 | – | inactive: 3.6%
Cc1c(Cl)cnc(NC(=O)COC(=O)/C=C/c2ccco2)c1Cl | inconclusive: 29.9 µM [inhibitor, single point] | –

2 consecutive entries out of the list so far:
SMILES | Potency | activity change, negative = inhibition
O=C(Cc1ccc2c(c1)OCCO2)c1c(O)cc(O)cc1O | – | inactive: -6.28%
CCCCc1cc2c(cn1)=C(OC(=O)c1ccco1)C(C)(OC(=O)CC)C(=O)C=2 (stereo not drawn) | – | inactive: -5.85% [at 12.4 µM]
